The values that follow come from the supplement of paper PMC10338343.

Assay [1] has as its system MIWI (PIWIL1) piRISC loaded with piRNA #1 (30 nt). As to the kind of experiment: pre-steady-state target cleavage rate (min^-1); higher = faster piRNA-guided slicing of the target. The following applies: guide: piRNA #1 5'p-UGAGGUAGUAGGUUGUAUAGUAUCCAGAGG; auxiliary factor: 500 nM mouse GTSF1. An outline of the steps:
(§1)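 In Cleave-'n-Seq, a transcribed, DNA-blocked target RNA library (0.1 nM) was combined with 1 nM active affinity-purified piRISC bearing one synthetic guide, with or without 500 nM GTSF1 partner protein. Reactions ran in HEPES–potassium acetate buffer at 33 °C for 0–8 or 0–960 min. Uncleaved targets were sequenced and normalised to depth and to weakly complementary targets, three trials were pooled, and k3 was capped at 0.0001 min^-1. The pre-steady-state cleavage rate was obtained by fitting a burst-and-steady-state model.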

The test system of assay [2] is EfPiwi piRISC loaded with piRNA #1 (26 nt). As to the kind of experiment: pre-steady-state target cleavage rate (min^-1); guide: piRNA #1 5'p-UGAGGUAGUAGGUUGUAUAGUAUCCA; MIWI and MILI are mouse PIWI proteins and EfPiwi is from a freshwater sponge; tags in brackets are library labels; higher = faster piRNA-guided slicing of the target. The following applies: auxiliary factor: 500 nM Ephydatia muelleri Gtsf1. Put shortly: as §1

± gives the standard deviation. This is a selection; strong and weak results do not stand in their true shares. The uncertainty is large for many entries.

For GGAGUGGAUACUAUACAACCUCUACCUCA, the “pre-steady-state target cleavage rate” value came to 0.00123 ± 0.0047 in assay [1] and 0.0673 ± 0.023 in assay [2].

For GGAGACCUAUGAAUACAACCUACUACCUAA, the results for the “pre-steady-state target cleavage rate” value in assay [1] and in assay [2] were 0.000975 ± 0.0073 and 0.000866 ± 0.0067, respectively.

As to GGAGACCUAUGUAUACAUCCUACUUCCUCA, the figures for the “pre-steady-state target cleavage rate” value in assay [1] and in assay [2] were 0.00248 ± 0.0027 and 0.000603 ± 0.0061, respectively.

With GGAGACCUAUGAAUACAACCUACUAGCCUCA, the figures for the “pre-steady-state target cleavage rate” value in assay [1] and in assay [2] were 0.00142 ± 0.0048 and 0.000162 ± 0.021, respectively.

As to GGAGACCUAUGAAUACAAGCUAGUACCUCA, the “pre-steady-state target cleavage rate” value is 0.000372 ± 0.005 in assay [1] and 0.000291 ± 0.012 in assay [2].

With GGAGACCUAUCUAUAGUUCCUACUACCUCA, the entries for the “pre-steady-state target cleavage rate” value in assay [1] and in assay [2] were 0.000949 ± 0.0068 and 0.00208 ± 0.0042, respectively.

In the case of GGAGACCUAUGUAUUCAACGUACUACCUCA, the figures for the “pre-steady-state target cleavage rate” value in assay [1] and in assay [2] were 0.00117 ± 0.0029 and 0.000375 ± 0.0068, respectively.

On to GGAGACCUAUGAUAUGUUGGUAACUACCUCA, for which the results for the “pre-steady-state target cleavage rate” value in assay [1] and in assay [2] were 0.000641 ± 0.0077 and 0.000584 ± 0.0067, respectively.

Consider GGAGACCUAUGUAUACAUCCUACUACCUGA, for which the “pre-steady-state target cleavage rate” value in assay [1] is 0.00251 ± 0.003; in assay [2], 0.00116 ± 0.008.

GGAGACCUAUCUAUACAACCUACUUCCUGA: the entries for the “pre-steady-state target cleavage rate” value in assay [1] and in assay [2] were 0.0338 ± 0.01 and 0.00139 ± 0.0042, respectively.

In the case of GGAGACGAUACUAUACAACCUACUACGUGA, the “pre-steady-state target cleavage rate” value in assay [1] came to 0.348 ± 0.054; in assay [2], 0.00515 ± 0.0026.

Take GGAGACCUAUGAUAUGUUGGUACUUCCACA: the “pre-steady-state target cleavage rate” value in assay [1] stood at 0.000587 ± 0.0081; in assay [2], 0.000259 ± 0.0075.

As for GGAGACCUAUGAUAUCAACCUACGUACCUCA, the figures for the “pre-steady-state target cleavage rate” value in assay [1] and in assay [2] were 0.000235 ± 0.012 and 0.000102 ± 0.036, respectively.

For GGAGACCUAUGAUUACAACCUACUACCUUA, the “pre-steady-state target cleavage rate” value in assay [1] worked out at 0.000467 ± 0.0059; in assay [2] it was 0.00206 ± 0.0044.

As for GGAGACGGAUACUAUACAACCUACUACCUCA, in assay [2], the “pre-steady-state target cleavage rate” value was determined as 0.221 ± 0.062.

On to GGAGACCUAUGAUAUCAAGGAACUACCUCA, for which, in assay [2], the “pre-steady-state target cleavage rate” value was found to be 0.000484 ± 0.013.

In the case of GGAGACCUAUGAUAUGUUGCUACUACGAGA, the “pre-steady-state target cleavage rate” value in assay [1] came to 0.000448 ± 0.016; in assay [2], 0.00108 ± 0.0053.

As to GGAGACCUAACAUAACAACCUACUACCUCA, the “pre-steady-state target cleavage rate” value in assay [1] stood at 0.00255 ± 0.0052; in assay [2], 0.00244 ± 0.0049.

In the case of GGAGACCUAUGAUAUCAAGCUACUACCACA, the figures for the “pre-steady-state target cleavage rate” value in assay [1] and in assay [2] were 0.0002 ± 0.011 and 0.000178 ± 0.018, respectively.

In the case of GGAGACCUAACUAUACUAGCUACUACCUCA, the “pre-steady-state target cleavage rate” value in assay [1] was found to be 0.0132 ± 0.006; in assay [2] it was 0.00203 ± 0.0041.
